For assay [1], the target named is T1, recombinant HC1 (rHC1), wild type; heavy chain 1 of inter-α-inhibitor (human) (UniProt P19827).
T1 sequence: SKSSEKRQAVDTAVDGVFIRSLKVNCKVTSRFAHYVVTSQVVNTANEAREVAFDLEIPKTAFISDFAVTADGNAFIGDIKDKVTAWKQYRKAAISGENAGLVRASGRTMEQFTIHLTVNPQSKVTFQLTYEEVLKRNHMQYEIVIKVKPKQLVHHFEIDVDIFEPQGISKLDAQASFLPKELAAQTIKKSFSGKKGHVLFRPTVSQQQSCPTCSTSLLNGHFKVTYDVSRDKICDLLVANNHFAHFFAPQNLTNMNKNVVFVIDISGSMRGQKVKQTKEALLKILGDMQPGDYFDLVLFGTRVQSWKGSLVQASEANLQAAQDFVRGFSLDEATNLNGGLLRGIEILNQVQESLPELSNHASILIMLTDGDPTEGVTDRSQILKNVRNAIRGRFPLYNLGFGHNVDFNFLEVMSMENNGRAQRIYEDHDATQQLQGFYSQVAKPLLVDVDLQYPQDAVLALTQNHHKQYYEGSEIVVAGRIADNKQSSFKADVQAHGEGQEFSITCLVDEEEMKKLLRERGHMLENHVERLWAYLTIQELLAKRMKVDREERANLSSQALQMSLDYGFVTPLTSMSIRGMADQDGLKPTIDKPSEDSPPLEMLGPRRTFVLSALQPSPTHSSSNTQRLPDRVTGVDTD
In words: SAXS.

Assay [2] has as its target T1, recombinant HC1 (rHC1), wild type; heavy chain 1 of inter-α-inhibitor (human). In words: SEC. In general terms: SEC sorts molecules by how far they enter the pores of the column.
Assay [3] has the same target. Briefly: SAXS. This is another data set of the same source.
Assay [4] has the same target. In words: SAXS. This is another data set of the same source.
For assay [5] the target is unchanged. Briefly: SAXS. This is another data set of the same source.
Assay [6] has as its target T2, rHC1 D298A (MIDAS site mutant) (human) (UniProt P19827).
T2 sequence: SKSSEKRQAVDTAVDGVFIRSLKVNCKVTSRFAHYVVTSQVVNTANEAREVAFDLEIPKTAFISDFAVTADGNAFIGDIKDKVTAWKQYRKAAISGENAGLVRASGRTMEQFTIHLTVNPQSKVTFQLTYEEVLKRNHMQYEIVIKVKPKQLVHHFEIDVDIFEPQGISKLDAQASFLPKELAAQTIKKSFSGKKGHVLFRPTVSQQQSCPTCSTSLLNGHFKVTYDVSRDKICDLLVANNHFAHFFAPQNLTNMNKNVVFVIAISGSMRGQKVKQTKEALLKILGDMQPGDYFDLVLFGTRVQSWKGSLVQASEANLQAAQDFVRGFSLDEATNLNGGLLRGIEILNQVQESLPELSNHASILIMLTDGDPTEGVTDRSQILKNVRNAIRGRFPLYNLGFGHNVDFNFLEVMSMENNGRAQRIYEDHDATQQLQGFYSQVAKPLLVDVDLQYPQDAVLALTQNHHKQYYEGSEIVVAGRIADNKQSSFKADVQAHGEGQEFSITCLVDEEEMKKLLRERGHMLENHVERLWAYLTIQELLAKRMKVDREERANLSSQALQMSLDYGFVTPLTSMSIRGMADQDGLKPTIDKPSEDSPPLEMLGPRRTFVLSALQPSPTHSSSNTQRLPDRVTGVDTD
In words: SAXS.

In assay [7] the target is T2, rHC1 D298A (MIDAS site mutant) (human). In words: SAXS. The source holds these as a separate data set.

Where two headings read alike, the source gives them in different places. Results are given in words; binding and its absence hold for the method and conditions named. Some entries that bind do so weakly or less than the wild type.

B1: recombinant HC1 (rHC1), wild type; heavy chain 1 of inter-α-inhibitor (protein, UniProt P19827 35-672)
chain: SKSSEKRQAVDTAVDGVFIRSLKVNCKVTSRFAHYVVTSQVVNTANEAREVAFDLEIPKTAFISDFAVTADGNAFIGDIKDKVTAWKQYRKAAISGENAGLVRASGRTMEQFTIHLTVNPQSKVTFQLTYEEVLKRNHMQYEIVIKVKPKQLVHHFEIDVDIFEPQGISKLDAQASFLPKELAAQTIKKSFSGKKGHVLFRPTVSQQQSCPTCSTSLLNGHFKVTYDVSRDKICDLLVANNHFAHFFAPQNLTNMNKNVVFVIDISGSMRGQKVKQTKEALLKILGDMQPGDYFDLVLFGTRVQSWKGSLVQASEANLQAAQDFVRGFSLDEATNLNGGLLRGIEILNQVQESLPELSNHASILIMLTDGDPTEGVTDRSQILKNVRNAIRGRFPLYNLGFGHNVDFNFLEVMSMENNGRAQRIYEDHDATQQLQGFYSQVAKPLLVDVDLQYPQDAVLALTQNHHKQYYEGSEIVVAGRIADNKQSSFKADVQAHGEGQEFSITCLVDEEEMKKLLRERGHMLENHVERLWAYLTIQELLAKRMKVDREERANLSSQALQMSLDYGFVTPLTSMSIRGMADQDGLKPTIDKPSEDSPPLEMLGPRRTFVLSALQPSPTHSSSNTQRLPDRVTGVDTD
Turning to B1, the binding entry in assay [1] is listed as “no binding (condition: 2.5mM EDTA)”; in assay [2], “binds weakly”; in assay [3] it was “binds weakly”; in assay [4], “binds weakly”; in assay [5], “no binding (condition: 5mM CaCl2)”.

B2: rHC1 D298A (MIDAS site mutant) (protein, UniProt P19827 35-672)
chain: SKSSEKRQAVDTAVDGVFIRSLKVNCKVTSRFAHYVVTSQVVNTANEAREVAFDLEIPKTAFISDFAVTADGNAFIGDIKDKVTAWKQYRKAAISGENAGLVRASGRTMEQFTIHLTVNPQSKVTFQLTYEEVLKRNHMQYEIVIKVKPKQLVHHFEIDVDIFEPQGISKLDAQASFLPKELAAQTIKKSFSGKKGHVLFRPTVSQQQSCPTCSTSLLNGHFKVTYDVSRDKICDLLVANNHFAHFFAPQNLTNMNKNVVFVIAISGSMRGQKVKQTKEALLKILGDMQPGDYFDLVLFGTRVQSWKGSLVQASEANLQAAQDFVRGFSLDEATNLNGGLLRGIEILNQVQESLPELSNHASILIMLTDGDPTEGVTDRSQILKNVRNAIRGRFPLYNLGFGHNVDFNFLEVMSMENNGRAQRIYEDHDATQQLQGFYSQVAKPLLVDVDLQYPQDAVLALTQNHHKQYYEGSEIVVAGRIADNKQSSFKADVQAHGEGQEFSITCLVDEEEMKKLLRERGHMLENHVERLWAYLTIQELLAKRMKVDREERANLSSQALQMSLDYGFVTPLTSMSIRGMADQDGLKPTIDKPSEDSPPLEMLGPRRTFVLSALQPSPTHSSSNTQRLPDRVTGVDTD
Consider B2, for which the binding result in assay [6] and in assay [7] was “no binding” in each case.

Source of the values: doi:10.1101/695700.
